The other results are listed elsewhere or left out.
Legend:
Assay in all cases: log2 fold change, soluble protein after heating vs DMSO (PISA); higher = thermal stabilisation; K562 cells, 10 uM, 30 min; active = over 0.2 and 3.5 SD of the protein, either way, in both replicates (recomputed)
[1] = compound: NC(=O)Nc1cc(-c2cccc(F)c2)sc1C(=O)N[C@H]1CCCNC1
Outline: (§1)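 For each measurement, 10 μM compound was applied for 30 min to K562 cells at 2×10^6 cells/mL. Aliquots were heated for 3 min across 48°C-58°C, pooled, and extracted in PBS with 0.5% NP-40 at 4°C; the supernatant after 21,000xg for 90 min was soluble protein. This was quantified by TMTpro 16plex LC-MS/MS with channel sums equalised, and thermal stability was reported relative to control samples from duplicates, on a log2 fold-change scale.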

The chains behind the UniProt entries cited, without tags or fusion partners. Where a name states a change or a piece, a line headed by the entry shows the natural chain unless it says otherwise.
UniProt O94925: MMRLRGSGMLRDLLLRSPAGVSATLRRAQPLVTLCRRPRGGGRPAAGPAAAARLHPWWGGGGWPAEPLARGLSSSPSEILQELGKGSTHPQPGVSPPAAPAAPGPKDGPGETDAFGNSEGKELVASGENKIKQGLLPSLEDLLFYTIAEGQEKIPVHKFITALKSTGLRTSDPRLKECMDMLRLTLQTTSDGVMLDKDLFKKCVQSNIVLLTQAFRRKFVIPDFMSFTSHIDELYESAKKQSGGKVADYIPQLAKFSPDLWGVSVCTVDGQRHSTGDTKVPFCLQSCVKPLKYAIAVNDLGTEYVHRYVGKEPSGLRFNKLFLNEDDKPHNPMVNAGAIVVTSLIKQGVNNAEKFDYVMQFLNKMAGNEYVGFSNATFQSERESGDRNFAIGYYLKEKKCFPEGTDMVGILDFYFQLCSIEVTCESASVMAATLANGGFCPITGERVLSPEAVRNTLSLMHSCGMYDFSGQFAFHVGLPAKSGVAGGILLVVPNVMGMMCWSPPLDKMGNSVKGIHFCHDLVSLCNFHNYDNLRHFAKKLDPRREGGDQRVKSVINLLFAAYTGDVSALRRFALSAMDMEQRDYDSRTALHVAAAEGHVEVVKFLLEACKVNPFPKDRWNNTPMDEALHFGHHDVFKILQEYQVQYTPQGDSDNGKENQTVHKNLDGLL
UniProt Q08378: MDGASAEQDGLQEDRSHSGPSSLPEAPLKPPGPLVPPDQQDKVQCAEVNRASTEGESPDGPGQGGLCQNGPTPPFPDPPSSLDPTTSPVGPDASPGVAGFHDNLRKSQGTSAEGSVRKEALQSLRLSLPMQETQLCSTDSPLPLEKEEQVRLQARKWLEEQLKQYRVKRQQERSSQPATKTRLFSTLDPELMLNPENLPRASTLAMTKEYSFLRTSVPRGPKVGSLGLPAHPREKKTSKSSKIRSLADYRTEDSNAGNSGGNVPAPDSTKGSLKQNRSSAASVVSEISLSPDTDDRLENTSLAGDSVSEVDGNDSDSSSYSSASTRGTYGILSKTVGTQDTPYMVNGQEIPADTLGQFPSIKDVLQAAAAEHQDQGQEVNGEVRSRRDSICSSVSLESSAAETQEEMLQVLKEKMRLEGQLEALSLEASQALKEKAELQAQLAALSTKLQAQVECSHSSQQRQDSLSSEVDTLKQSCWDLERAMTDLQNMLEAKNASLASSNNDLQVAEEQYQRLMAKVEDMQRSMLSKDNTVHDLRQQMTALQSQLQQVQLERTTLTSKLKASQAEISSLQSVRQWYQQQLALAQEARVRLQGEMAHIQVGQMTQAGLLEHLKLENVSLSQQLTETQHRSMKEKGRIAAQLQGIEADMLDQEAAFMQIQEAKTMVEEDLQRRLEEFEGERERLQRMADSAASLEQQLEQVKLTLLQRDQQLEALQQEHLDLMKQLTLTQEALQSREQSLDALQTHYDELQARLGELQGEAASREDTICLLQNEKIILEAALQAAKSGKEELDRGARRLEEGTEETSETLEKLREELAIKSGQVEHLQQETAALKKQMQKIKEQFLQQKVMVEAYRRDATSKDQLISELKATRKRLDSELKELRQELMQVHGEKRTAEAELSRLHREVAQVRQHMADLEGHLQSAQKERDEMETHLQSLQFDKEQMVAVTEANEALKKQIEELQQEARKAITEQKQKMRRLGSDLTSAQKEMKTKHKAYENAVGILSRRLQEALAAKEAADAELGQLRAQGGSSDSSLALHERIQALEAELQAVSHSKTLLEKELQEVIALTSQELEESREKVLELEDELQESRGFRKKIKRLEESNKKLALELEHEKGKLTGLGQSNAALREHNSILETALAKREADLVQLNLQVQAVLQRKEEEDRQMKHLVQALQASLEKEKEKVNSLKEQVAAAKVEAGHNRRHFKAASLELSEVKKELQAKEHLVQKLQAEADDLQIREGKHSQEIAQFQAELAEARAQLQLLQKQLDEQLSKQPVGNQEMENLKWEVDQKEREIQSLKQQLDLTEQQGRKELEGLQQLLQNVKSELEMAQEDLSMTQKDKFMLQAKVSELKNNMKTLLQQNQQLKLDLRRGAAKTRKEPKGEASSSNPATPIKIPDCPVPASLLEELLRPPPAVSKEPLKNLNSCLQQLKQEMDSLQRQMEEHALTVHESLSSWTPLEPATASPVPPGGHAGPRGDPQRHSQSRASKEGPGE
UniProt Q14691: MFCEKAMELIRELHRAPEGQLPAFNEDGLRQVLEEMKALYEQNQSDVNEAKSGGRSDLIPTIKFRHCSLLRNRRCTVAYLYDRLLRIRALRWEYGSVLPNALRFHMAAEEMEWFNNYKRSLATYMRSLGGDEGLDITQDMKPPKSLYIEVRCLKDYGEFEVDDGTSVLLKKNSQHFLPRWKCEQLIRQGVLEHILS
UniProt Q9P2T1: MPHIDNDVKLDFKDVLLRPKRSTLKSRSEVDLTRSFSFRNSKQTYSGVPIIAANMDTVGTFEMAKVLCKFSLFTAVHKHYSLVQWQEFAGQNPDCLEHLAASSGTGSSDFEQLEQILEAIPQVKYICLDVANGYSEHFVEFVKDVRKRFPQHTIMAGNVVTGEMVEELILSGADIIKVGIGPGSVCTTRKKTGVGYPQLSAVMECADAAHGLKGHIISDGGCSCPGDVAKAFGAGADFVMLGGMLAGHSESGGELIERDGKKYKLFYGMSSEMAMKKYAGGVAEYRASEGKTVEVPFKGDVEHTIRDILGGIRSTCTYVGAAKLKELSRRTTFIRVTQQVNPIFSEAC
UniProt Q6Y7W6: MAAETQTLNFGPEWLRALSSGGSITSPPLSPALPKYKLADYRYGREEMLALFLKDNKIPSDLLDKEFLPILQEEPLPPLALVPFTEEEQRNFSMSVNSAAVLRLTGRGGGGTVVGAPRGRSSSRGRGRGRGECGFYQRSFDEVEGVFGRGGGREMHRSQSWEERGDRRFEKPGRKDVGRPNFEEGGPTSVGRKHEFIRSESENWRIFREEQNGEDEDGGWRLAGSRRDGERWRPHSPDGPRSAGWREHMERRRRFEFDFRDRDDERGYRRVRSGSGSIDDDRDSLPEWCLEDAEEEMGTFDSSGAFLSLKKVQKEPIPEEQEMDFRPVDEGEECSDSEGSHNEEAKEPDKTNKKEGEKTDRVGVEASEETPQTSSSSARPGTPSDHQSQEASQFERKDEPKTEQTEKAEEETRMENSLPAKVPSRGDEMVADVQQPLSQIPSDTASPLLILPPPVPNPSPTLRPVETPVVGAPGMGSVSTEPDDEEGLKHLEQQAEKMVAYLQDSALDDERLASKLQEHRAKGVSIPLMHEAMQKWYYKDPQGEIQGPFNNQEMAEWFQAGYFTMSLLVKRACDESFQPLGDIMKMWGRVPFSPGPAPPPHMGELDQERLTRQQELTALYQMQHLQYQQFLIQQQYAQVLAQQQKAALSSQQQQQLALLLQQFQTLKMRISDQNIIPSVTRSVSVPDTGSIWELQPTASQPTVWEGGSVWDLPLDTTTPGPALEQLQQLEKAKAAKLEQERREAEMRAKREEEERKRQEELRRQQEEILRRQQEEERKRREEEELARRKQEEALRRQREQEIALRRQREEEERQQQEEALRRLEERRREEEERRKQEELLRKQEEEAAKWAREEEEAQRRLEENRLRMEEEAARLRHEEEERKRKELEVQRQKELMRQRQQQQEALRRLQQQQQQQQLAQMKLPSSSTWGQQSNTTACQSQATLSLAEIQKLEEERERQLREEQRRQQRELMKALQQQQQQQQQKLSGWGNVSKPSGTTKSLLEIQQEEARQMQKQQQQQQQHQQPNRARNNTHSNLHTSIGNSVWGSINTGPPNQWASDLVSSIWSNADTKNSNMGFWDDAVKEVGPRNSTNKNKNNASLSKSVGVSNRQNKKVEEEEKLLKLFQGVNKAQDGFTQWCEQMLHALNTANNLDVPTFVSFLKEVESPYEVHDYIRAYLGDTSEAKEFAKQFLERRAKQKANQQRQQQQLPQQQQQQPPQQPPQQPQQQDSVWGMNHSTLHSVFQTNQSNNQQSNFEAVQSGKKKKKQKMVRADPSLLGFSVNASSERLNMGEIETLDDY
UniProt Q5JWF2, whole entry, looked up: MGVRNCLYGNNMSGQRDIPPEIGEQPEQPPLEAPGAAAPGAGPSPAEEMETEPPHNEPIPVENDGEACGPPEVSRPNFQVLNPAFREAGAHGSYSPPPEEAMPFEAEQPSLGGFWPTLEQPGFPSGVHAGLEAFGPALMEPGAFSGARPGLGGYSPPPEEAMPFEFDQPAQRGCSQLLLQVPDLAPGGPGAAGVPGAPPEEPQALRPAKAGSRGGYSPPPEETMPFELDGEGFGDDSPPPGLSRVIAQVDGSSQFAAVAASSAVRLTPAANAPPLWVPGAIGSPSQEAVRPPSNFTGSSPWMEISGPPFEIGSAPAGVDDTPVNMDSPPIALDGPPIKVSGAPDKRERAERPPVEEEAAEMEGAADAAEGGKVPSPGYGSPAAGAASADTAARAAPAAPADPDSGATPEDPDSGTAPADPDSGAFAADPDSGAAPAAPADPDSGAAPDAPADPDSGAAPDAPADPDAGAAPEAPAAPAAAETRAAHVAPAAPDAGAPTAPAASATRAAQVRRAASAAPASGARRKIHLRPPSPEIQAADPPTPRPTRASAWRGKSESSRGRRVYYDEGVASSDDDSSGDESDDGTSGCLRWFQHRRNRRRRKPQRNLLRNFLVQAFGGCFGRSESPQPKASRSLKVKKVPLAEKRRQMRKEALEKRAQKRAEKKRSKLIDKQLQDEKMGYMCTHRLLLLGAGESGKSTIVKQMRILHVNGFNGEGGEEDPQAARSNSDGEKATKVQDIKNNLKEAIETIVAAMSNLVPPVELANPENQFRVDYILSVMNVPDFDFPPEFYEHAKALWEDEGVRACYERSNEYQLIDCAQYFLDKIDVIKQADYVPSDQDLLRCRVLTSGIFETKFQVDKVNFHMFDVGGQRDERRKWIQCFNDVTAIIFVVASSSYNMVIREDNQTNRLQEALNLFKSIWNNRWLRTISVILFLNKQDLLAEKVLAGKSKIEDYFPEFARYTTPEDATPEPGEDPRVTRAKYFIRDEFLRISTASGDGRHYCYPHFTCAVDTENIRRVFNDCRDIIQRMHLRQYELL
UniProt O60234, whole entry, looked up: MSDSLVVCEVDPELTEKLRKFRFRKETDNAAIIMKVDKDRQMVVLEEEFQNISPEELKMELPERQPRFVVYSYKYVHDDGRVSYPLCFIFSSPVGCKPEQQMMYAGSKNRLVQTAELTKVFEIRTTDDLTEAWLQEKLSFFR
UniProt Q9NWU2, whole entry, looked up: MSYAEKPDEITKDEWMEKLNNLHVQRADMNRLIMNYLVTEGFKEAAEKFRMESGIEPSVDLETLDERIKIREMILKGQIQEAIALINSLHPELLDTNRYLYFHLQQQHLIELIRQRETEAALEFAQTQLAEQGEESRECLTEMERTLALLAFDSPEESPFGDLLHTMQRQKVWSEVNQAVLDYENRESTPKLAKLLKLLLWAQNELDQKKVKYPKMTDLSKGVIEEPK
UniProt Q49A26: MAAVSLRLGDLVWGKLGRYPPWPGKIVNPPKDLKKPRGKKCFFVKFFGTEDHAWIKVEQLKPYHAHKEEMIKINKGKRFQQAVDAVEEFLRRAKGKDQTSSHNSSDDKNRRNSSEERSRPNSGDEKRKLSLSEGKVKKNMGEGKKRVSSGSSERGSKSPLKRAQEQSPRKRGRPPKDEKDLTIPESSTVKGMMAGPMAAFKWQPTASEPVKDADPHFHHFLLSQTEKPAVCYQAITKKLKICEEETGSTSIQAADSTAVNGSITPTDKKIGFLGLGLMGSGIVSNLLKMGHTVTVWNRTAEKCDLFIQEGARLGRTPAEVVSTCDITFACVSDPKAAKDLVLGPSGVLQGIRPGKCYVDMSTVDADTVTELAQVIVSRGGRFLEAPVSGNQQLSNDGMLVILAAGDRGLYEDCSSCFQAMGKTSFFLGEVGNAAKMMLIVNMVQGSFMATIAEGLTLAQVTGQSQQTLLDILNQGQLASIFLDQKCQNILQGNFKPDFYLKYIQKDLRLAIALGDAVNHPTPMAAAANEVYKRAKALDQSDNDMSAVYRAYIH
UniProt O43292: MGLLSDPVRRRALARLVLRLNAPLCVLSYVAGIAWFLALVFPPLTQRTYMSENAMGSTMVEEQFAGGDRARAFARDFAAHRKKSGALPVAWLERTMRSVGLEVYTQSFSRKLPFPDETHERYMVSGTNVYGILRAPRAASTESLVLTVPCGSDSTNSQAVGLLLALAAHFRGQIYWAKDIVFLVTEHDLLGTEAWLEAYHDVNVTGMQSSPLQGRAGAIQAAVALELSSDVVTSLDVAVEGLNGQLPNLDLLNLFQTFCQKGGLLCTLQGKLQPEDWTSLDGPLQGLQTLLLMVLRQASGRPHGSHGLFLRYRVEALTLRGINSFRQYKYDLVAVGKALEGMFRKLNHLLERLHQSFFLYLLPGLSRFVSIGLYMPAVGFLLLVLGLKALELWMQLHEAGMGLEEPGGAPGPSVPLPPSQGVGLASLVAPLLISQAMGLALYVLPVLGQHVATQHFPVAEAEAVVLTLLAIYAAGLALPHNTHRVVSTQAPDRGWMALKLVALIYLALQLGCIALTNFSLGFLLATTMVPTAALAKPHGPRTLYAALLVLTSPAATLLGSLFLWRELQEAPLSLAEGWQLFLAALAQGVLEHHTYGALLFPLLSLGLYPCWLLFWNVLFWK

[2] = compound: NC(=O)c1cnc(N[C@@H]2CCCC[C@@H]2N)nc1Nc1cccc(-n2nccn2)c1
Outline: as §1

[3] = compound: NC1(c2ccc(-c3nc4ccn5c(=O)[nH]nc5c4cc3-c3ccccc3)cc2)CCC1
Outline: as §1

[4] = compound: NCC(=O)Nc1ccc(-n2nc(C(F)(F)F)cc2-c2ccc3c(ccc4ccccc43)c2)cc1
Outline: as §1

entinostat = compound: Nc1ccccc1NC(=O)c1ccc(CNC(=O)OCc2cccnc2)cc1 [entinostat]
Outline: as §1

vorinostat = compound: O=C(CCCCCCC(=O)Nc1ccccc1)NO [vorinostat]
Outline: as §1

citarinostat = compound: O=C(CCCCCCNC(=O)c1cnc(N(c2ccccc2)c2ccccc2Cl)nc1)NO [citarinostat]
Outline: as §1

silmitasertib = compound: O=C(O)c1ccc2c(c1)nc(Nc1cccc(Cl)c1)c1ccncc12 [silmitasertib]
Outline: as §1

[5] = compound: O=C1NC(=O)C(c2cnc3ccccn23)=C1c1cn2c3c(cc(F)cc13)CN(C(=O)N1CCCCC1)CC2
Outline: as §1

[6] = compound: c1cc(OCCN2CCCCC2)cc(-c2n[nH]c3ccc(-c4nnc[nH]4)cc23)c1
Outline: as §1

Measured: log2 fold change

GLS (UniProt O94925)
inactive: [1] -0.019 | [2] 0.152 | [3] -0.157 | [4] -0.093 | entinostat 0.039 | vorinostat 0.022 | citarinostat 0.068 | silmitasertib 0.008 | [5] -0.193 | [6] -0.032

GOLGA3 (UniProt Q08378)
inactive: [1] 0.005 | [2] 0.024 | [3] -0.025 | [4] -0.005 | entinostat -0.002 | vorinostat -0.026 | citarinostat -0.033 | silmitasertib 0.046 | [5] 0.017 | [6] 0.025

GNE isoform 2 (UniProt Q9Y223)
inactive: [1] 0.018 | [2] -0.055 | [3] -0.105 | [4] 0.003 | entinostat -0.065 | vorinostat 0.032 | citarinostat 0.013 | silmitasertib 0.023 | [5] 0.02 | [6] -0.05

GIPC1 (UniProt O14908)
inactive: [1] -0.036 | [2] -0.031 | [3] -0.086 | [4] -0.06 | entinostat -0.016 | vorinostat 0.014 | citarinostat -0.039 | silmitasertib 0.101 | [5] 0.034 | [6] -0.154

GLA (UniProt P06280)
inactive: [1] 0.04 | [2] -0.049 | [3] -0.143 | [4] -0.066 | entinostat -0.034 | vorinostat 0.056 | citarinostat 0.027 | silmitasertib -0.03 | [5] -0.036 | [6] 0.029

GINS1 (UniProt Q14691)
inactive: [1] -0.108 | [2] -0.026 | [3] -0.146 | [4] -0.002 | entinostat 0.038 | vorinostat 0.08 | citarinostat 0.012 | silmitasertib -0.074 | [5] -0.054 | [6] -0.024

GLMN (UniProt Q92990)
inactive: [1] -0.008 | [2] 0.008 | [3] -0.077 | [4] -0.028 | entinostat -0.009 | vorinostat 0.027 | citarinostat 0.032 | silmitasertib 0.033 | [5] -0.005 | [6] -0.031

GMPR2 isoform 2 (UniProt Q9P2T1)
inactive: [1] -0.016 | [2] 0.013 | [3] 0.013 | [4] 0.04 | entinostat -0.029 | vorinostat -0.029 | citarinostat 0.037 | silmitasertib -0.012 | [5] -0.041 | [6] 0.003

GIGYF2 (UniProt Q6Y7W6)
inactive: [1] -0.102 | [2] -0.062 | [3] -0.046 | [4] -0.079 | entinostat 0.024 | vorinostat 0.103 | citarinostat 0.06 | silmitasertib -0.004 | [5] -0.016 | [6] -0.065

GPR107 (UniProt Q5VW38)
inactive: [1] -0.013 | [2] 0.034 | [3] 0.002 | [4] 0.034 | entinostat -0.017 | vorinostat -0.012 | citarinostat -0.042 | silmitasertib 0.023 | [5] 0.052 | [6] -0.056

GLB1L2 (UniProt Q8IW92)
inactive: [1] 0.06 | [2] 0.038 | [3] 0.073 | [4] 0.017 | entinostat -0.023 | vorinostat 0.035 | citarinostat 0.066 | silmitasertib 0.001 | [5] -0.009 | [6] -0.042

GOLT1B (UniProt Q9Y3E0)
inactive: [1] -0.089 | [2] -0.054 | [3] -0.028 | [4] -0.078 | entinostat -0.038 | vorinostat 0.029 | citarinostat 0.091 | silmitasertib -0.015 | [5] 0.031 | [6] 0.121

GPR89A (UniProt B7ZAQ6)
inactive: [1] 0.027 | [2] -0.063 | [3] -0.038 | [4] 0.036 | entinostat 0.039 | vorinostat 0.041 | citarinostat 0.108 | silmitasertib -0.016 | [5] -0.006 | [6] -0.083

GLB1 (UniProt P16278)
inactive: [1] 0.02 | [2] 0.002 | [3] -0.097 | [4] -0.043 | entinostat 0.01 | vorinostat -0.065 | citarinostat 0.005 | silmitasertib 0.021 | [5] -0.003 | [6] -0.044

GLRX2 isoform 2 (UniProt Q9NS18)
inactive: [1] -0.152 | [2] 0.086 | [3] 0.078 | [4] 0.155 | entinostat -0.034 | vorinostat 0.004 | citarinostat 0.043 | silmitasertib -0.218 | [5] -0.145 | [6] 0.009

GRSF1 (UniProt Q12849)
inactive: [1] 0.025 | [2] -0.077 | [3] -0.098 | [4] -0.009 | entinostat 0.084 | vorinostat 0.101 | citarinostat 0.11 | silmitasertib 0.148 | [5] 0.207 | [6] -0.171

GNAS (UniProt Q5JWF2)
inactive: [1] -0.133 | [2] -0.009 | [3] 0.002 | [4] -0.004 | entinostat -0.058 | vorinostat -0.022 | citarinostat -0.043 | silmitasertib -0.018 | [5] -0.007 | [6] -0.045

GPAT4 (UniProt Q86UL3)
inactive: [1] -0.031 | [2] 0.002 | [3] -0.012 | [4] -0.028 | entinostat -0.107 | vorinostat -0.017 | citarinostat 0.004 | silmitasertib -0.005 | [5] -0.077 | [6] -0.068

GLRX3 (UniProt O76003)
inactive: [1] 0 | [2] -0.057 | [3] -0.066 | [4] -0.042 | entinostat 0.022 | vorinostat -0.013 | citarinostat 0.014 | silmitasertib 0.034 | [5] -0.094 | [6] -0.024

GMFG (UniProt O60234)
inactive: [1] -0.019 | [2] -0.088 | [3] -0.085 | [4] -0.024 | entinostat 0.008 | vorinostat -0.062 | citarinostat 0.012 | silmitasertib 0.016 | [5] -0.074 | [6] -0.054

GLG1 isoform 2 (UniProt Q92896)
inactive: [1] 0 | [2] 0.023 | [3] -0.063 | [4] 0.054 | entinostat 0.008 | vorinostat 0.011 | citarinostat 0.026 | silmitasertib 0.025 | [5] -0.011 | [6] -0.001

GNA12 (UniProt Q03113)
inactive: [1] -0.108 | [2] -0.372 | [3] -0.231 | [4] -0.176 | entinostat -0.071 | vorinostat -0.197 | citarinostat -0.184 | silmitasertib 0.042 | [5] -0.164 | [6] -0.107

Seven consecutive entries out of the list so far, for reference:
GLRX2 isoform 2 (UniProt Q9NS18)
inactive: [1] -0.152 | [2] 0.086 | [3] 0.078 | [4] 0.155 | entinostat -0.034 | vorinostat 0.004 | citarinostat 0.043 | silmitasertib -0.218 | [5] -0.145 | [6] 0.009

GRSF1 (UniProt Q12849)
inactive: [1] 0.025 | [2] -0.077 | [3] -0.098 | [4] -0.009 | entinostat 0.084 | vorinostat 0.101 | citarinostat 0.11 | silmitasertib 0.148 | [5] 0.207 | [6] -0.171

GNAS (UniProt Q5JWF2)
inactive: [1] -0.133 | [2] -0.009 | [3] 0.002 | [4] -0.004 | entinostat -0.058 | vorinostat -0.022 | citarinostat -0.043 | silmitasertib -0.018 | [5] -0.007 | [6] -0.045

GPAT4 (UniProt Q86UL3)
inactive: [1] -0.031 | [2] 0.002 | [3] -0.012 | [4] -0.028 | entinostat -0.107 | vorinostat -0.017 | citarinostat 0.004 | silmitasertib -0.005 | [5] -0.077 | [6] -0.068

GLRX3 (UniProt O76003)
inactive: [1] 0 | [2] -0.057 | [3] -0.066 | [4] -0.042 | entinostat 0.022 | vorinostat -0.013 | citarinostat 0.014 | silmitasertib 0.034 | [5] -0.094 | [6] -0.024

GMFG (UniProt O60234)
inactive: [1] -0.019 | [2] -0.088 | [3] -0.085 | [4] -0.024 | entinostat 0.008 | vorinostat -0.062 | citarinostat 0.012 | silmitasertib 0.016 | [5] -0.074 | [6] -0.054

GLG1 isoform 2 (UniProt Q92896)
inactive: [1] 0 | [2] 0.023 | [3] -0.063 | [4] 0.054 | entinostat 0.008 | vorinostat 0.011 | citarinostat 0.026 | silmitasertib 0.025 | [5] -0.011 | [6] -0.001

Later entries:

GID8 (UniProt Q9NWU2)
inactive: [1] -0.038 | [2] -0.067 | [3] -0.041 | [4] -0.023 | entinostat 0.056 | vorinostat -0.042 | citarinostat 0.022 | silmitasertib 0.106 | [5] -0.049 | [6] -0.016

GLS isoform 3 (UniProt O94925)
inactive: [1] -0.133 | [2] 0.154 | [3] -0.285 | [4] 0.01 | entinostat -0.017 | vorinostat 0.019 | citarinostat 0.169 | silmitasertib 0 | [5] -0.24 | [6] 0.071

GLYR1 (UniProt Q49A26)
inactive: [1] -0.023 | [2] 0.034 | [3] -0.032 | [4] 0.112 | entinostat -0.049 | vorinostat 0.027 | citarinostat 0.011 | silmitasertib -0.015 | [5] -0.009 | [6] -0.135

GINS3 (UniProt Q9BRX5)
inactive: [1] -0.159 | [2] -0.038 | [3] -0.078 | [4] -0.057 | entinostat 0.014 | vorinostat -0.039 | citarinostat 0.01 | silmitasertib -0.052 | [5] -0.081 | [6] -0.013

GRAP2 (UniProt O75791)
inactive: [1] -0.002 | [2] -0.105 | [3] -0.094 | [4] -0.102 | entinostat -0.046 | vorinostat 0.106 | citarinostat 0.003 | silmitasertib 0.1 | [5] -0.087 | [6] 0.025

GPAA1 (UniProt O43292)
inactive: [1] -0.016 | [2] -0.022 | [3] -0.077 | [4] -0.009 | entinostat 0.046 | vorinostat 0.001 | citarinostat 0.016 | silmitasertib 0.033 | [5] -0.013 | [6] -0.054

GNPTAB (UniProt Q3T906)
inactive: [1] -0.061 | [2] -0.012 | [3] -0.092 | [4] -0.075 | entinostat -0.238 | vorinostat -0.101 | citarinostat -0.048 | silmitasertib 0.101 | [5] -0.161 | [6] 0.239
